Experimental data published in PMC6586911.
Results are given in words; binding and its absence hold for the method and conditions named. For part of these data: Binding seen in cells or lysates may run through a third protein. Some binding calls cover weakened binding; strength is not graded here. Blank lines part the entries; values can stand above or below the substance they belong to.

The chains behind the UniProt entries cited, without tags or fusion partners.
UniProt Q16763: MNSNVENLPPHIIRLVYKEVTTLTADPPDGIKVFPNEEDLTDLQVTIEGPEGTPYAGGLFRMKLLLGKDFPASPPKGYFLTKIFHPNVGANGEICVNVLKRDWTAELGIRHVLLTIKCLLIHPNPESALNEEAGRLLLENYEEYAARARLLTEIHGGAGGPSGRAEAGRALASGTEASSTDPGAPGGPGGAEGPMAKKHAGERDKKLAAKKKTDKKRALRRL
UniProt P40337: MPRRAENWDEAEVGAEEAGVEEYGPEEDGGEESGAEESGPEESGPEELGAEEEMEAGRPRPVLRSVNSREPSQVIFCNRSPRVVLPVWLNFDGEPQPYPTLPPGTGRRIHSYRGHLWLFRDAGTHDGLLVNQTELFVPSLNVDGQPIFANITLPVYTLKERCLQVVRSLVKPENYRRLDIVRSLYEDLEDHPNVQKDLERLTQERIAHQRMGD

Key:
[1] = biological target: UCP (full-length UCP of the pull-downs of Supplementary Fig. 3; construct not shown) (UniProt Q16763); test: pull-down; GST pull-down with deletion mutants of HBx and UCP (Supplementary Fig. 3b–e); legend and details not shown
[2] = biological target: GST-UCP (expressed in 293T cells) (UniProt Q16763); test: pull-down + co-IP; 293T cells transfected with GST-UCP, HA-VHL, F-HBx and/or GST expression vector (10 μg each), 24 h; GST pull-down and IP from lysates
[3] = biological target: GST-UCP protein (expressed in bacteria) (UniProt Q16763); test: pull-down; purified GST-UCP (1 μg), His-pVHL (1 μg), F-HBx (0.5, 2 μg) and/or GST (1 μg) proteins mixed, 4 °C for 1 h; pull-down; both purified

binding [1]: binds
Substance: pVHL (of the pull-downs of Supplementary Fig. 3; construct not shown) (from UniProt P40337 1-213)

binding [2]: binds
Substance: HA-VHL (expressed in 293T cells) (from UniProt P40337 1-213)

binding [3]: binds
Substance: His-pVHL protein (from UniProt P40337 1-213)
